Results: PMC11546247
These are yes or no findings as the source states them, for the method shown. Binding seen in cells or lysates may run through a third protein. Binding can be weak; no strength is given.

Biological target: glutathione peroxidase 4
Test: co-IP; HEK-293T cells transiently transfected with indicated plasmids for 36 h; lysed in RIPA buffer with 1% PMSF; supernatant with 50 uL protein G-agarose beads and 1 ug antibody, 4 h at 4 °C; washed three times with RIPA buffer; Western blot

B1: malate dehydrogenase 2 (enzyme, UniProt P40926 25-338)
chain: AKVAVLGASGGIGQPLSLLLKNSPLVSRLTLYDIAHTPGVAADLSHIETKAAVKGYLGPEQLPDCLKGCDVVVIPAGVPRKPGMTRDDLFNTNATIVATLTAACAQHCPEAMICVIANPVNSTIPITAEVFKKHGVYNPNKIFGVTTLDIVRANTFVAELKGLDPARVNVPVIGGHAGKTIIPLISQCTPKVDFPQDQLTALTGRIQEAGTEVVKAKAGAGSATLSMAYAGARFVFSLVDAMNGKEGVVECSFVKSQETECTYFSTPLLLGKKGIEKNLGIGKVSSFEEKMISDAIPELKASIKKGEDFVKTLK
- binding: binds
